Measured values published in patent US20220119794A1, “CHEMICALLY PROGRAMMED NEUTROPHILS AND USES THEREOF” (VIRGINIA POLYTECHNIC INSTITUTE AND STATE UNIVERSITY, priority 2018, published 2022).
For at least one compound, name, drawing or mass did not settle the structure.

Experiments:
[1] = test system: Bone marrow (BM) neutrophils; assay: In vitro neutrophil priming, surface phenotype by FACS; type: cell-based, C57 BL/6 mice; conditions: 2 d
Experimental: (§1) In vitro neutrophil priming and FACS analysis. Bone marrow (BM) neutrophils were isolated from C57 BL/6 mice and cultured in complete RPMI medium containing 10% fetal bovine serum, 2 mM L-glutamine, 1% penicillin/streptomycin in the presence of G-CSF (100 ng/ml). PBS, subclinical dose LPS (100 pg/ml), oxLDL (10 μg/ml) or 4-PBA (1 mM) was added to cell cultures. After 2 days, the cells were harvested and stained with anti-Ly6G (BioLegend, #127606, 127610 or 127618, 1:200 dilution), anti-CD11b (BioLegend, #101206, 1:200 dilution), anti-CD62L (BioLegend, #104407, 1:200 dilution), anti-Dectin1 (BioLegend, #144305, 1:200 dilution), anti-LLRC32 (BioLegend, #142904, 1:200 dilution) and anti-FPN (Novus, #NBP1-21502, 1:200 dilution) antibodies. In some experiments, the cells were fixed and permeabilized using transcription factor phospho buffer set (BD Biosciences), and then stained with primary anti-p-STAT1 (Cell Signaling, #8009S, 1:50 dilution), anti-ATF4 (Proteintech, #10835-1-AP, 1:50 dilution), and anti-KLF2 (Novus, #NBP2-61812, 1:100 dilution) antibodies followed by staining with Alexa Fluor 488 conjugated goat anti-rabbit IgG (Abcam, #ab150077, 1:2000 dilution). Surface phenotype and transcription factor phosphorylation of Ly6G+ neutrophils were analyzed by FACSCanto II (BD Biosciences). For intracellular ROS detection, 5 μM CellROX Green Reagent (ThermoFisher) was added to neutrophil cultures 30 min before harvesting, and cells were analyzed by FACSCanto II (BD Biosciences). The data were processed by Flow Jo (Tree Star).

BM neutrophils [2] = assay: ELISA of MMP9, LTB4, MPO in neutrophil culture supernatant; type: cell-based, C57 BL/6 mice; conditions: 4-PBA 1 mM with LPS 100 pg/ml, 2 d
Experimental: ELISA and determination of plasma lipids. For in vivo analyses, plasma was collected from the mice at time of sacrificing. For in vitro analyses, purified BM neutrophils were cultured in complete RPMI medium with G-CSF (100 ng/ml) in the presence of PBS, subclinical dose LPS (100 pg/ml), oxLDL (10 μg/ml) or 4-PBA (1 mM), and supernatant was collected after 2 d. ELISA kit of MPO was purchased from ThermoFisher, and ELISA kits of MMP9, LTB4 and TGF-β1 were purchased from R&D Systems. Cholesterol quantitation kit was purchased from Sigma-Aldrich, and triglyceride quantification kit was purchased from BioVision.

BM neutrophils [3] = assay: Real-time RT-PCR of miR-24 and miR-126 in neutrophil cultures; type: cell-based, C57 BL/6 mice; conditions: 4-PBA 1 mM with LPS 100 pg/ml, 2 d
Experimental: Real-Time RT-PCR for detecting of miRNAs. For in vivo analyses, plasma was collected from the mice at time of sacrificing. Circulating miRNAs were isolated with miRNeasy Serum/Plasma kit (Qiagen). For in vitro analyses, purified BM neutrophils were cultured in complete RPMI medium with G-CSF (100 ng/ml) in the presence of PBS, subclinical dose LPS (100 pg/ml), or 4-PBA (1 mM), and miRNAs were isolated with miRNeasy mini kit (Qiagen) after 2 d. TaqMan miRNA Assay kits for detection of U6, miR-16, miR-24, and miR-126 were purchased from ThermoFisher. Real-time RT-PCR was performed following the manual. U6 expression was used as the internal control for miRNA expressions in neutrophil cultures, and miR-16 expression was used as the internal control for plasma miRNA expressions.

[4] = test system: oxCaMKII and 5-LOX in BM neutrophils; assay: Immunoblotting of oxCaMKII and 5-LOX in neutrophils; type: cell-based, C57 BL/6 mice; conditions: 4-PBA 1 mM with LPS 100 pg/ml, 2 d
Experimental: Immunoblotting. Purified BM neutrophils were cultured in complete RPMI medium with G-CSF (100 ng/ml) in the presence of PBS, subclinical dose LPS (100 pg/ml), oxLDL (10 μg/ml) or 4-PBA (1 mM), and total cell lysate was extracted on day 2. Protein samples were separated with SDS-PAGE and transferred to PVDF membranes, which were probed with anti-oxCaMKII (Millipore, #07-1387, 1:500 dilution), anti-5 LOX (Cell Signaling, #3289S, 1:500 dilution), and anti-β-actin (Santa Cruz, #sc-47778, 1:1000 dilution) primary antibodies followed by horseradish peroxidase-conjugated anti-rabbit IgG (Cell Signaling, #7074S, 1:1000 dilution) or anti-mouse IgG (Cell Signaling, #7076S, 1:1000 dilution) secondary antibodies. Images were developed by a chemiluminescence ECL detection kit (ThermoFisher).

[5] = test system: p-STAT1, ATF4, KLF2 in BM neutrophils; assay: p-STAT1, ATF4 and KLF2 levels in neutrophils by flow cytometry; type: cell-based, C57 BL/6 mice; conditions: 4-PBA 1 mM with LPS 100 pg/ml, 2 d
Experimental: as §1

BM neutrophils [6] = assay: Intracellular ROS detection with CellROX; type: cell-based, C57 BL/6 mice; conditions: 4-PBA 1 mM with LPS 100 pg/ml, 2 d
Experimental: as §1, with “In some experiments, the cells were fixed and permeabilized using transcription factor phospho buffer set (BD Biosciences), and then stained with primary anti-p-STAT1 (Cell Signaling, #8009S, 1:50 dilution), anti-ATF4 (Proteintech, #10835-1-AP, 1:50 dilution), and anti-KLF2 (Novus, #NBP2-61812, 1:100 dilution) antibodies followed by staining with Alexa Fluor 488 conjugated goat anti-rabbit IgG (Abcam, #ab150077, 1:2000 dilution).” left out, “The data were processed by Flow Jo (Tree Star).” left out

BM neutrophils [7] = assay: Lysosome-peroxisome fusion by confocal microscopy; type: cell-based, C57 BL/6 mice; conditions: 4-PBA 1 mM in cells treated with LPS 100 pg/ml, 2 d
Experimental: Confocal Microscopy. Purified BM neutrophils were cultured in complete RPMI medium with G-CSF (100 ng/ml) in the presence of PBS, subclinical dose LPS (100 pg/ml), or 4-PBA (1 mM) for 2 d. To determine lysosome-peroxisome fusion, the cells were fixed with 4% PFA, deposited on slides through cytospin, and permeabilized with 0.2% Trinton X-100. The cells were blocked and stained with primary rabbit anti-mouse PMP70 antibody (1:1000) supplied in SelectFX® Alexa Fluor® 488 Peroxisome Labeling Kit (ThermoFisher, #S34201), followed by staining with Alexa Fluor 488-goat anti-rabbit secondary antibody (1:1000) supplied in the kit. After extensive washing with PBS, the cells were then stained with Cy3-anti-LAMP1 antibody (Abcam, #Ab67283, 1:1000) and observed under a confocal microscope.

BM neutrophils [8] = assay: Surface phenotype of neutrophils before transfer, polarization for 24 h; type: cell-based, mice; conditions: polarized for 24 hours, vs PBS
Experimental: Bone marrow neutrophils were purified and treated with PBS, super-low-dose LPS (100 pg/ml) or 4-PBA (1 mM) for 24 h (FIGS. 16A-16B) and 48 h (FIGS. 16C-16D). The cells were stained with Annexin-V and PI, and the viability (percentage of Annexin-V-/PI-population) was determined by flow cytometry. (FIG. 16E) Surface phenotype of neutrophils was analyzed by flow cytometry after polarization for 24 h. Data are representative of three independent experiments, and error bars represent means±S.E.M. *P<0.05, **P<0.01 and ***P<0.001 as compared with PBS group; one-way ANOVA. (n=5 for each group).
Adoptive transfer of in vitro neutrophils. Bone marrow (BM) cells were isolated from ApoE−/− mice and BM neutrophils (Ly6G+ population) were purified by FACS sorting with >99.5% purity. The cells were cultured in complete RPMI with G-CSF (100 ng/ml) in the presence of subclinical dose LPS (100 pg/ml) or 4-PBA (1 mM) for 24 h. Cells were washed three times with PBS and suspended in PBS for injection. HFD-fed ApoE−/− mice were transfused with 2×10^6 neutrophils in 200 μl PBS once weekly through intravenous injection for 4 weeks. One week after the last cell transfer, mice were sacrificed and tissues were harvested for subsequent analyses.

Q: For `O=C(O)CCCc1ccccc1` [4-PBA, 4-phenylbutyrate], which “surface CD11b induced by LPS” value ([1]; 4-PBA 1 mM with LPS 100 pg/ml) is on record?
A: effectively reduced

Q: And the “surface Dectin-1 induced by LPS” value ([1]; 4-PBA 1 mM with LPS 100 pg/ml)?
A: effectively reduced

Q: What about the “surface levels of CD62L” value ([1]; 4-PBA 1 mM with LPS 100 pg/ml) of the same compound?
A: restored

Q: What about the “surface FPN” value ([1]; addition of 4-PBA 1 mM) of the same compound?
A: sufficient to induce

Q: What about the “surface LRRC32” value ([1]; addition of 4-PBA 1 mM) of the same compound?
A: sufficient to induce

Q: And the “induction of LTB4 by LPS” value (BM neutrophils [2])?
A: potently reduce

Q: And the “induction of MMP9 by LPS” value (BM neutrophils [2])?
A: potently reduce

Q: And the “induction of MPO by LPS” value (BM neutrophils [2])?
A: potently reduce

Q: And the “miR-24 induced by LPS” value (BM neutrophils [3])?
A: reduced the induction

Q: And the miR-126 (BM neutrophils [3])?
A: restored the induction

Q: What about the “activation of oxCAMKII by LPS” value [4] of the same compound?
A: effectively ameliorated

Q: And the “induction of 5-LOX by LPS” value [4]?
A: effectively ameliorated

Q: What about the ATF4 level [5] of the same compound?
A: restoration

Q: What about the KLF2 level [5] of the same compound?
A: restoration

Q: What about the pSTAT1 level [5] of the same compound?
A: reduction

Q: What about the “induction of ROS by LPS” value (BM neutrophils [6]) of the same compound?
A: effectively ameliorated

Q: What about the “fusion of peroxisome and lysosome” value (BM neutrophils [7]) of the same compound?
A: effectively restored

Q: What about the CD11b expression (BM neutrophils [8]) of the same compound?
A: reduced

Q: And the CD62L expression (BM neutrophils [8])?
A: elevated

Q: What about the Dectin-1 expression (BM neutrophils [8]) of the same compound?
A: reduced

Q: And the FPN expression (BM neutrophils [8])?
A: elevated

Q: And the LRRC32 expression (BM neutrophils [8])?
A: elevated
